# PubChem BioAssay AID504764 – Drosophila RNAi Screening Center | 2011
# Aim: 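Knock-downs that raise or lower a Notch target reporter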 (primary screen)
# Cells: Drosophila Kc167 cells
# Reagents: long dsRNA against Drosophila genes
# Duration: about 5 days (4 days dsRNA, then 24 h after transfection)
# Challenge: transfection of constitutively active membrane-tethered Notch lacking the extracellular domain, read 24 h later
# Measured: 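Light from a Notch-responsive E(spl)m3 luciferase reporter under active Notch, with control-promoter and no-Notch reporter wells to normalise; raw counts from paired wells a and b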
# Direction: induced reporter light, run 1, well a and induced reporter light, run 1, well b: higher = more light from the Notch target reporter with active Notch; control promoter light, run 1, well a and control promoter light, run 1, well b: higher = more light from the viral control promoter (cell number, transfection, viability); uninduced reporter light, run 1, well a: higher = more light from the Notch target reporter without active Notch
# Active means: 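Hit if the duplicate-averaged log2 ratio of induced to control-promoter light gives a plate-wise z beyond ±2, or induced to uninduced beyond ±1.8; weak-control or discordant-duplicate wells dropped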
# Meaning of the calls: active = modifier hit (raised or lowered Notch signal); inactive = not a hit
# The deposit covers about 22,000 reagents; this is an unselected part of those that have a named target and a result. Over the whole deposit, 403 (1.9%) were called active. 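Unnormalised raw counts per well; ratio z-scores behind the hit calls and whether each hit raises or lowers signal are not deposited.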 A plus sign joins genes that one reagent is predicted to hit. Not given: the amount of reagent.
gene knocked down,amplicon,"induced reporter light, run 1, well a","induced reporter light, run 1, well b","control promoter light, run 1, well a","control promoter light, run 1, well b","uninduced reporter light, run 1, well a",activity call
Obp59a (GeneID 37605),DRSC04160,2.08e5,1.49e5,1.76e5,1.42e5,13125,inactive
CG1703 (GeneID 32112),DRSC19764,1.22e5,1.06e5,2.20e5,1.67e5,8020,inactive
DCP1 (GeneID 37790),DRSC04091,1.40e5,1.14e5,78815,75110,8735,inactive
nrv2 (GeneID 33953),DRSC00948,30075,32945,33750,27585,1905,inactive
nrv2 (GeneID 33953),DRSC03383,1.56e5,1.67e5,1.77e5,1.78e5,17755,inactive
CG44085 (GeneID 34732),DRSC02922,3960,5142,8035,7100,1980,inactive
LRR (GeneID 35715),DRSC06444,2.28e5,2.26e5,2.94e5,2.63e5,18438,inactive
CG32987 (GeneID 318273),DRSC22373,,,,,,active
Girdin (GeneID 38385),DRSC08292,1.48e5,1.43e5,3.02e5,2.38e5,7838,inactive
Sdr (GeneID 41809),DRSC15517,1.10e5,1.11e5,81620,80600,8920,inactive
Kul (GeneID 43501),DRSC15404,1.28e5,1.18e5,1.59e5,1.71e5,10785,inactive
CG12645 (GeneID 31947),DRSC17851,63915,70655,68345,83270,5420,inactive
drongo (GeneID 33263),DRSC00814,83160,1.14e5,60585,71755,10892,inactive
msd5 (GeneID 38156),DRSC08560,1.20e5,98745,2.06e5,1.27e5,10160,inactive
CG30286 (GeneID 246529),DRSC04070,55445,58785,47950,78135,3065,inactive
CG17834 (GeneID 34191),DRSC02637,2.27e5,2.84e5,1.92e5,2.12e5,15595,inactive
CG11353 (GeneID 38560),DRSC08182,99850,1.20e5,1.10e5,52600,11665,inactive
Scsalpha1 (GeneID 38447),DRSC08698,1.58e5,1.59e5,1.77e5,1.02e5,18325,active
Smyd5 (GeneID 42517),DRSC15483,2.55e5,2.32e5,2.39e5,2.74e5,20595,inactive
BobA (GeneID 50281),DRSC09889,1.74e5,1.98e5,2.54e5,1.93e5,8255,inactive
CG34452 (GeneID 5740876),DRSC09387,1.61e5,2.11e5,2.64e5,2.87e5,19205,inactive
CG2906 (GeneID 35753),DRSC06841,2.42e5,2.31e5,2.76e5,2.96e5,20110,inactive
Cyp6a14 (retired record) (GeneID 8674017),DRSC07376,1.69e5,1.49e5,2.03e5,2.21e5,15805,inactive
CG42579 (GeneID 8674025),DRSC20391,1.02e5,1.08e5,1.17e5,1.22e5,9555,inactive
Grl36b (GeneID 318940),DRSC01627,64965,69965,62460,59500,5660,inactive
Mes2 (GeneID 40514),DRSC11593,27920,25170,43970,44020,3565,inactive
Mes2 (GeneID 40514),DRSC11632,21105,17305,23610,21178,2950,inactive
CG13933 (GeneID 38227),DRSC08402,95485,96590,1.59e5,2.13e5,8325,inactive
CG31013 (GeneID 326111),DRSC16542,1.29e5,1.22e5,1.64e5,1.88e5,11320,inactive
Ag5r (GeneID 44631),DRSC19327,2.33e5,2.41e5,3.07e5,2.84e5,16015,inactive
ktub (GeneID 37400),DRSC04551,1.99e5,2.02e5,1.73e5,1.84e5,15642,inactive
CG15631 (GeneID 33675),DRSC00466,1.58e5,1.19e5,1.54e5,1.31e5,9285,inactive
CG8119 (GeneID 32500),DRSC20083,83715,59205,57305,51200,9910,inactive
CG33342 (GeneID 2768684),DRSC13662,1.66e5,1.62e5,1.62e5,1.51e5,14405,inactive
CG31523 (GeneID 326148),DRSC12009,1.76e5,1.91e5,2.36e5,1.93e5,15760,inactive
CG31523 (GeneID 326148),DRSC12337,1.24e5,1.25e5,1.13e5,1.15e5,8365,inactive
CG42394 + CG6567,DRSC12821,2.00e5,1.68e5,1.95e5,1.86e5,12528,inactive
fan (GeneID 43926),DRSC10930,2.40e5,2.52e5,2.82e5,2.38e5,9650,inactive
CG42245 + MEP-1,DRSC07993,2.08e5,1.74e5,2.06e5,1.62e5,16850,inactive
CG42245 + MEP-1,DRSC08274,1.06e5,92700,1.60e5,1.55e5,8320,inactive
CG13465 (GeneID 50282),DRSC10011,1.91e5,2.04e5,2.54e5,1.82e5,8665,inactive
nsl1 (GeneID 41911),DRSC15625,1.77e5,2.77e5,3.39e5,4.25e5,16450,inactive
ZnT86D (GeneID 41342),DRSC16091,86700,1.06e5,1.08e5,77780,7040,inactive
Agpat2 (GeneID 34176),DRSC03532,2.06e5,1.80e5,2.13e5,1.96e5,16550,inactive
Or30a (GeneID 34236),DRSC03385,1.12e5,1.40e5,65580,72720,19025,inactive
CG13460 (GeneID 39638),DRSC10007,2.08e5,2.17e5,2.82e5,2.62e5,12330,inactive
NfI (GeneID 43782),DRSC17158,1.80e5,2.08e5,2.87e5,2.74e5,12715,inactive
Mesh1 (GeneID 43456),DRSC14433,1.31e5,1.33e5,1.85e5,1.52e5,11265,inactive
Gip (GeneID 31960),DRSC18667,1.63e5,1.52e5,2.62e5,2.59e5,13305,inactive
beat-IIIa (GeneID 35035),DRSC01575,77500,69160,77260,68615,7470,inactive
beat-IIIa (GeneID 35035),DRSC01577,1.24e5,93450,85920,93590,7695,inactive
beat-IIIa (GeneID 35035),DRSC02178,1.65e5,1.93e5,1.66e5,1.90e5,14175,inactive

Active calls (from the list above):
gene knocked down,amplicon,"induced reporter light, run 1, well a","induced reporter light, run 1, well b","control promoter light, run 1, well a","control promoter light, run 1, well b","uninduced reporter light, run 1, well a",activity call
CG32987 (GeneID 318273),DRSC22373,,,,,,active
Scsalpha1 (GeneID 38447),DRSC08698,1.58e5,1.59e5,1.77e5,1.02e5,18325,active
